# Reference: patent US4230712A, “7-Methyl-8β-lower alkyl or 7-methyl-8-lower alkyl B/C cis or trans morphinan-6-one compounds and therapeutic method of treating pain employing them” (Miles Laboratories, Inc., priority 1978, dated 1980)
# Counter-ions that a name gives are not always drawn. For at least one compound, name, drawing or mass did not settle the structure.
# Test system: rats
# Assay: narcotic antagonist activity, modified rat tail flick test against morphine
# Format: in vivo, male albino Wistar rats
# Protocol: (B) Narcotic antagonist activity in rats (modified rat tail flick test).
# TEST B. EVALUATION OF NARCOTIC ANTAGONIST ACTIVITY
# The narcotic antagonist effects of test compounds were determined by a modification of the rat tail flick procedure of Harris and Pierson (J. Pharmacol. Exp. Ther. 143:141 [1964]).
# Male albino Wistar rats (100-120 g) were used for this study. A rat's tail is so placed so as to cover a photocell. Heat is applied by a lamp in a reflector with a timer being connected to the lamp and photocell so that the timer goes on when the light is turned on and is turned off when the photocell is uncovered. A rheostat, incorporated into a heating lamp is used to adjust the intensity of the light falling on the tail of the rat such that the rat's control reaction time is from two to four seconds. Animals with a control reaction time outside this range are rejected. […] Groups of five rats were used each time, and two control times were determined at 60 and 30 minutes prior to subcutaneous injection of the drug.
# Thirty minutes after the last control run the test drug was given intraperitoneally. […] The data were calculated as follows: [formula]
# The data were plotted on log-probit paper and AD50 values, i.e., the dose required to inhibit the morphine effect by 50% within 95% confidence limits, were determined by the method of Litchfield and Wilcoxon.
compound,measurement,setting,value
"COc1ccc2c(c1)[C@]13CCN(CC4CC4)[C@H](C2)[C@@H]1CCC(=O)C3 [TR-5152, 17-Cyclopropylmethyl-3-methoxymorphinan-6-one Hydrochloride, reference compound]",narcotic antagonist activity relative to TR-5119,vs TR-5119,substantially less antagonist activity
same,narcotic antagonist activity relative to TR-5188,vs TR-5188,weaker antagonist
